Results taken from PubChem BioAssay AID504834 (National Center for Advancing Translational Sciences (NCATS), 2011).
The campaign covered roughly 320,000 compounds. About 22,000 (6.9%) were called active. The inconclusive results got no clear call from the source; some entries with a clear call stand among them for comparison. Calls come from the whole dose curve; as a rule, active = well fitted inhibition curve with a large enough effect; inconclusive = small, poorly fitted or top-dose-only effect, or another doubt; inactive = no such curve, though single readings can be large or run the other way. Potencies beside an inconclusive call are fits to weak or partial responses and may not hold up.

experiment: Primary qHTS for delayed death inhibitors of the malarial parasite plastid, 96 hour incubation; details: P. falciparum luciferase reporter growth; series mostly up to 28.7 µM; activity change, negative = inhibition: at the top concentration
Procedure, shortened: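 96 h incubation, 37 C, 5% CO2, of luciferase-reporter P. falciparum-infected RBCs (2% hematocrit, 0.05% parasitemia final) with test compounds; endpoint luminescence.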
% is set by controls: 0 for no effect and ±100 for the full control effect; potency is the fitted concentration of half-maximal effect.

SMILES	Potency	activity change, negative = inhibition
CCc1ccccc1NC(=O)CN(c1ccc(OC)cc1OC)S(=O)(=O)c1ccccc1	inconclusive: 18.5 µM [inhibitor, single point]	–
NNCCc1ccccc1	inconclusive: 8.09 µM [inhibitor, single point]	–
Cc1cc(/C=C2\NC(=O)N(Cc3ccc(Cl)cc3)C2=O)c(C)n1C	inconclusive: 0.828 µM [inhibitor, full curve]	–
COCCN1C(=O)N[C@@H](c2cccs2)C(C(=O)OC)=C1C	–	inactive: -9.15%
O=Cc1cc(CCC(=O)O)ccc1O	inconclusive: 18.5 µM [inhibitor, single point]	–
CC(C)CCN(C(=O)c1cn2ccccc2n1)c1c(N)n(Cc2ccccc2)c(=O)[nH]c1=O	–	inactive: 0.552%
CC(=O)C1=NN(c2ccc(Cl)cc2)C(c2ccc3c(c2)OCO3)N(C(C)=O)N1C (centres undefined)	active: 11.7 µM	–
CCOc1ccccc1NC(=O)/C(C#N)=C/c1cccnc1	active: 13.1 µM	–
O=C(CSc1nc2c(c(C(F)(F)F)n1)CCc1ccccc1-2)NCc1ccco1	–	inactive: 37.8%
CCOC(=O)N1CCN(C(=O)C(=O)Nc2sc3c(c2C(=O)O)CC(C)(C)OC3)CC1	inconclusive: 11.7 µM [inhibitor, single point]	–
O=C(OCC(=O)N1CCCC1)c1cc(Cl)ccc1[N+](=O)[O-]	–	inactive: 25%
COc1ccc(CC(=O)N2CCN(S(=O)(=O)c3cc(Cl)ccc3Cl)CC2)cc1	inconclusive: 18.5 µM [inhibitor, single point]	–
CC1CC(=O)N(c2ccc(N(C)Cc3ccccc3)c([N+](=O)[O-])c2)C1=O (centres undefined)	–	inactive: 28.7%
CCOC(=O)c1ccccc1NC(=O)Cc1sc(-c2cccnc2)nc1-c1ccc(C)cc1	active: 2.62 µM	–
CN(C)c1ccc(NC(=O)/C=C/c2c(Cl)cccc2Cl)cc1	–	inactive: 3.2%
CC(=O)Oc1ccccc1C(=O)Nc1ccccc1C(=O)N1CCCCC1	inconclusive: 0.0026 µM [inhibitor, full curve, poor fit]	–
COc1cc(C(=O)NCC2(c3ccccc3)CCCC2)cc(OC)c1OC	inconclusive: 18.5 µM [inhibitor, single point]	–
CC(=O)N1c2ccc(S(=O)(=O)N3CCCC3C(=O)Nc3cccc(F)c3)cc2CC1C (centres undefined)	inconclusive: 14.7 µM [inhibitor, partial curve, poor fit]	–
CN1CCN(CC(=O)N2CCn3c4c(c5cc(C6CCCCC6)ccc53)CCCC42)CC1 (centres undefined)	inconclusive: 9.28 µM [inhibitor, partial curve, poor fit]	–
N#C/C(=C\c1cccnc1)c1ccc(Br)cc1	inconclusive: 11.7 µM [inhibitor, single point]	–
N#Cc1cccnc1N1CCN(C(=O)c2cccc3c2C(=O)c2ccc(Cl)cc2S3(=O)=O)CC1	inconclusive: 0.0828 µM [inhibitor, partial curve, poor fit]	–
COc1cccc(OC)c1C(=O)Nc1c(C(=O)N2CCN(c3ccccn3)CC2)oc2ccccc12	–	inactive: -0.184%

Some of these compounds in order of SMILES length, high to low.
SMILES	Potency	activity change, negative = inhibition
O=C(OCC(=O)N1CCCC1)c1cc(Cl)ccc1[N+](=O)[O-]	–	inactive: 25%
COCCN1C(=O)N[C@@H](c2cccs2)C(C(=O)OC)=C1C	–	inactive: -9.15%
N#C/C(=C\c1cccnc1)c1ccc(Br)cc1	inconclusive: 11.7 µM [inhibitor, single point]	–

Remaining list, next part:

SMILES	Potency	activity change, negative = inhibition
Cc1ccc(C(C)C)c(OCC(=O)NNC2=CC(=O)CC(C)(C)C2)c1	inconclusive: 10.4 µM [inhibitor, single point]	–
CCC(=O)c1ccc(OCC(O)CN(CCc2ccccc2)Cc2ccccc2)cc1 (centres undefined)	inconclusive: 14.7 µM [inhibitor, single point]	–
Cc1cccc(C)c1NC(=O)CN(C)CC(=O)Nc1ccccc1Oc1ccccc1	active: 11.7 µM	–
COc1ccc(NC(=O)C/C(C)=N/NC(=O)c2ccco2)c([N+](=O)[O-])c1	inconclusive: 8.28 µM [inhibitor, partial curve]	–
O=C(Nc1cccc(F)c1)[C@@H]1CCCN1	inconclusive: 18.5 µM [inhibitor, single point]	–
CC1(C)Cc2c(sc3nc(-c4ccccc4)oc(=O)c23)CO1	–	inactive: -27.7%
Cc1ccc(-c2nc3ncccc3o2)cc1NC(=S)NC(=O)c1ccco1	inconclusive: 0.0052 µM [inhibitor, full curve, poor fit]	–
NC(=O)c1ccccc1NC(=O)CCc1ccccc1	–	inactive: 77.9%
O=C1CN(C(=O)COc2ccc(Cl)c(Cl)c2)c2ccccc2N1	active: 3.29 µM	–
O=C(/C=C/c1ccccc1[N+](=O)[O-])Nc1ccc(S(=O)(=O)Nc2ncccn2)cc1	inconclusive: 3.7 µM [inhibitor, partial curve]	–
Cc1c(CCOC(=O)c2cc([N+](=O)[O-])ccc2Cl)sc[n+]1CCCCS(=O)(=O)[O-]	inconclusive: 0.37 µM [inhibitor, full curve, poor fit]	–
CN(c1ccccc1C(=O)NC1CC2CCC1C2)S(=O)(=O)c1ccccc1 (centres undefined)	inconclusive: 2.94 µM [inhibitor, partial curve]	–
CCS(=O)(=O)c1ccc(-c2cccc(NC(=O)c3ccco3)c2)nn1	inconclusive: 18.5 µM [inhibitor, single point]	–
Cc1ccc(S(=O)(=O)N2CCC(=O)N(CCOCc3cccc(Cl)c3)CC2)cc1	inconclusive: 11.7 µM [inhibitor, single point]	–
CN(CC(=O)Nc1ccc(Cl)c(C(F)(F)F)c1)C(=O)/C=C/c1cccs1	inconclusive: 11.7 µM [inhibitor, single point]	–
CCOC(=O)C1CCCN(C(=O)c2ccc(Cl)c(S(=O)(=O)N3CCCCCC3)c2)C1 (centres undefined)	inconclusive: 18.5 µM [inhibitor, single point]	–
CN(Cc1cccs1)c1ncnc2sccc12	–	inactive: 3.35%
O=C(CSc1nnc(CNC(=O)c2c(F)cccc2Cl)o1)NC1CCCCC1	inconclusive: 18.5 µM [inhibitor, partial curve, poor fit]	–
CCCOc1ccc(C(=O)NCCCn2ccnc2)cc1	inconclusive: 18.5 µM [inhibitor, single point]	–
Cc1cc(C)c2nc(NNC(=O)c3ccc(S(=O)(=O)N4CC(C)CC(C)C4)cc3)sc2c1 (centres undefined)	active: 1.85 µM	–
Cc1ccc(C)c(NC(=O)CSc2nnc(-c3cc(C)[nH]n3)n2N)c1	inconclusive: 18.5 µM [inhibitor, single point]	–
CC1(C)NC(=O)N(CC(=O)N2CCN(S(=O)(=O)c3ccccc3C(F)(F)F)CC2)C1=O	–	inactive: -30.8%
